The results in this text go back to PMC4244159.

Sequences of proteins named here, by UniProt entry; tags and fusion partners are left off. A change or cut given only in a name is not applied to a line headed by its entry.
UniProt Q12778: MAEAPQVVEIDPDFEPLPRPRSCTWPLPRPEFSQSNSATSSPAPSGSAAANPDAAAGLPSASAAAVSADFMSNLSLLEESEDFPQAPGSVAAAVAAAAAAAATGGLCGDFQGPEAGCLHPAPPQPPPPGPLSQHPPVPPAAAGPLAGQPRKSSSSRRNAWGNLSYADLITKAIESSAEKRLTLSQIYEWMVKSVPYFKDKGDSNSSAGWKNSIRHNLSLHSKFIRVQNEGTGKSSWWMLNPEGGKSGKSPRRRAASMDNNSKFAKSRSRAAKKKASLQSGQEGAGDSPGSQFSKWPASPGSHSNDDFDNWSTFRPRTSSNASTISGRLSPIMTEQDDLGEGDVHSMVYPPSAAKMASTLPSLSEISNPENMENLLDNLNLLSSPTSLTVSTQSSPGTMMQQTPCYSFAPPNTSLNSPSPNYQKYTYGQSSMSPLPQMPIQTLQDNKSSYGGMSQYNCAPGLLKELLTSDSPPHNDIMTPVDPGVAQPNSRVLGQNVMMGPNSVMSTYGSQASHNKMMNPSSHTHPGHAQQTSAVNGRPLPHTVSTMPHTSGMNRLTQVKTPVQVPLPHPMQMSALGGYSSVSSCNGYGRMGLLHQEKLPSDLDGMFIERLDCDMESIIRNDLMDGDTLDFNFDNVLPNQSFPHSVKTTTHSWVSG

Data set [1] concerns the target Flag-FOXO1-CA (constitutively active FOXO1) (human) (UniProt Q12778). Put plainly: EMSA. The settings on record: 10 mM Hepes pH 7.8, 50 mM KCl, 5 mM MgCl2, 0.1% NP-40, 1 mM DTT, 2 µg poly(dI-dC), 10% glycerol; 1 fmol probe, 4 µL TnT lysate, 4°C 30 min; 5% PAGE, 0.25x TBE; protein translated in vitro; protein details: Flag; label: 32P 5' end.
The target is the same in data set [2]. As to the kind of experiment: EMSA, Flag supershift. The settings on record: 10 mM Hepes pH 7.8, 50 mM KCl, 5 mM MgCl2, 0.1% NP-40, 1 mM DTT, 2 µg poly(dI-dC), 10% glycerol; 1 fmol probe, 4 µL TnT lysate, 4°C 30 min; 5% PAGE, 0.25x TBE; protein translated in vitro; protein details: Flag; label: 32P 5' end.

The exact form of at least one protein or probe is not confirmed. For some assays here: Negatives hold for the conditions tested. For some assays here: Weaker means in comparison with the reference protein, sequence or condition of that experiment.

Turning to “GGATTCTGAGTTCGCCAAGTTAAAGATCAGAAAGA (double strand) [Fshb -305/-271]”, the binding result in data set [1] is on record as “no binding”.

In the case of “ATCATCACTGATAGCATTTTCTGCTCTGTGGCATT (double strand) [Fshb -185/-151]”, the binding result in data set [1] is recorded as “no binding”. The same measure, in the same setting: for “GCCATATCAGATTCGGTTTGTACAGAAACCATCAT (double strand) [Fshb -215/-181]” the value was “no binding”; for “AAAGAATAGTCTAGACTCTAGAGTCACATTTAATT (double strand) [Fshb -275/-241]”, “no binding”. Still for that read-out and setting: for “TAATTTACAAGGTGAGGGAGTGGGTGTGCTGCCAT (double strand) [Fshb -245/-211]” the value was “no binding”. In the case of “CTAGATGGTAAACAACTGTGACTAGTAGAACACGG (double strand) [consensus FBE]”, the binding result in data set [2] is recorded as “binds”. As to “TCCCTGTCCGTCTAAACAATGATTCCCTTTCAGCA (double strand) [Fshb -125/-91]”, the binding result in data set [2] was “binds more weakly”. Take “GCATTTAGACTGCTTTGGCGAGGCTTGATCTCCCT (double strand) [Fshb -155/-121]”: the binding result in data set [1] is reported as “no binding”.
